This note sets out measurements from publication PMC8160739, “Mycobacterium tuberculosis Binds Human Serum Amyloid A, and the Interaction Modulates the Colonization of Human Macrophages and the Transcriptional Response of the Pathogen” (Cells, 2021).

Amino acid sequences for entries named in this document (tags omitted).
UniProt P9WJD9: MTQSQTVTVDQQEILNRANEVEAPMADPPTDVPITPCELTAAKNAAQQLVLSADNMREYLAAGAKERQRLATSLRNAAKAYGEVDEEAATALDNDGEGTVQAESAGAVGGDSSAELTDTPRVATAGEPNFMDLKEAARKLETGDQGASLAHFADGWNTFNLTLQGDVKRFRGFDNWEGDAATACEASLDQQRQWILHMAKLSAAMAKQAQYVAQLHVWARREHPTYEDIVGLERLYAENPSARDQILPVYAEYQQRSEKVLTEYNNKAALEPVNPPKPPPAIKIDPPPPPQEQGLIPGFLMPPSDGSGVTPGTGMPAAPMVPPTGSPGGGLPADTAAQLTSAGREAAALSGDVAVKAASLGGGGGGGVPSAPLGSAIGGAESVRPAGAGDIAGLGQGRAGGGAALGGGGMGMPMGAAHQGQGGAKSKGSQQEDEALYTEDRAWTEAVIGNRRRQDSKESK
UniProt P9WG79: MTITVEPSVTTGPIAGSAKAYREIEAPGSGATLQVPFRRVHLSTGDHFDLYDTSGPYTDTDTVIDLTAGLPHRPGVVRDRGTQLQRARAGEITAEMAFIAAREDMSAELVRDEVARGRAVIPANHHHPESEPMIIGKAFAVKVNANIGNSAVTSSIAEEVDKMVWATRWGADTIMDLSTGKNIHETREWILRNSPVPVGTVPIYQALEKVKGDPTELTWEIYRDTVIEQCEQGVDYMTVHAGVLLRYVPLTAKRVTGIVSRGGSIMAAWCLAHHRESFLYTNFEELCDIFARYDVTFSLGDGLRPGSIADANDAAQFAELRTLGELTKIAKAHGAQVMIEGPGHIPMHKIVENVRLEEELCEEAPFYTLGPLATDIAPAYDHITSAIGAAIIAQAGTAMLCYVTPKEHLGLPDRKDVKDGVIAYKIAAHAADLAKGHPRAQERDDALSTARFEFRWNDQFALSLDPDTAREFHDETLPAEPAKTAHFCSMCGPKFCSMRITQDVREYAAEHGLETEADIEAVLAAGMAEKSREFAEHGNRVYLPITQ

Results are given in words; binding and its absence hold for the method and conditions named. Binding seen in cells or lysates may run through a third protein. These calls come from enrichment with a bait or labelling near it, and not all partners need be listed.

This test deals with T1, recombinant human serum amyloid A (SAA1) (human) (UniProt P0DJI8).
T1 sequence: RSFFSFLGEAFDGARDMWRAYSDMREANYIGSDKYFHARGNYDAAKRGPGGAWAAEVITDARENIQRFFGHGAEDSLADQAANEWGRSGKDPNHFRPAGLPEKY
Nature of the test: affinity purification with mass spectrometry; only the target purified.

For the molecule “EspB (Rv3881c; secreted ESX-1 substrate protein B, EspB), native, from Mtb whole-cell extract (from UniProt P9WJD9 1-460)”, the binding result is recorded as “binds”.

As to “ThiC (Rv0423c; probable thiamine biosynthesis protein ThiC), native, from Mtb whole-cell extract (from UniProt P9WG79 1-547)”, the binding entry was “binds”.

B1: ABC transporter (Rv2477c (protein, UniProt P9WQK3 1-558)
chain: MAEFIYTMKKVRKAHGDKVILDDVTLSFYPGAKIGVVGPNGAGKSSVLRIMAGLDKPNNGDAFLATGATVGILQQEPPLNEDKTVRGNVEEGMGDIKIKLDRFNEVAELMATDYTDELMEEMGRLQEELDHADAWDLDAQLEQAMDALRCPPADEPVTNLSGGERRRVALCKLLLSKPDLLLLDEPTNHLDAESVQWLEQHLASYPGAILAVTHDRYFLDNVAEWILELDRGRAYPYEGNYSTYLEKKAERLAVQGRKDAKLQKRLTEELAWVRSGAKARQAKSKARLQRYEEMAAEAEKTRKLDFEEIQIPVGPRLGNVVVEVDHLDKGYDGRALIKDLSFSLPRNGIVGVIGPNGVGKTTLFKTIVGLETPDSGSVKVGETVKLSYVDQARAGIDPRKTVWEVVSDGLDYIQVGQTEVPSRAYVSAFGFKGPDQQKPAGVLSGGERNRLNLALTLKQGGNLILLDEPTNDLDVETLGSLENALLNFPGCAVVISHDRWFLDRTCTHILAWEGDDDNEAKWFWFEGNFGAYEENKVERLGVDAARPHRVTHRKLTRG
B1: the binding entry is “binds”.

B2: TB 18.6 (Rv2140c; conserved protein TB18.6), native, from Mtb whole-cell extract (protein, UniProt P9WFN1 1-176)
chain: MTTSPDPYAALPKLPSFSLTSTSITDGQPLATPQVSGIMGAGGADASPQLRWSGFPSETRSFAVTVYDPDAPTLSGFWHWAVANLPANVTELPEGVGDGRELPGGALTLVNDAGMRRYVGAAPPPGHGVHRYYVAVHAVKVEKLDLPEDASPAYLGFNLFQHAIARAVIFGTYEQR
For B2, the binding entry is “binds”.
